This experiment has as its system patients with mild to moderate COPD. The experiment in a line: Multi-center crossover clinical trial, single administration: FEV1 spirometry. The experiment is classed as in vivo, human. The following applies: 18 μg dose vs 20 μg dose reported by Singh et al.

Turning to `C[N+]1(C)CCC(OC(=O)C(O)(c2ccccc2)C2CCCC2)C1.[Br-]` (stereo not shown) [glycopyrrolate, Pyrrolidinium, 3-((cyclopentylhydroxyphenylacetyl)oxy)-1,1-dimethyl-, bromide], the “Bronchodilator response (FEV1 AUC) compared with Singh et al.” value is listed as “significantly better bronchodilator response”.

Values taken from patent US10716753B2, “Compositions for pulmonary delivery of long-acting muscarinic antagonists or long-acting B2 adrenergic receptor agonists and associated methods and systems” (priority 2009, dated 2020).
